Assay results published in article PMC4816932.
Results are given in words; binding and its absence hold for the method and conditions named. Binding seen in cells or lysates may run through a third protein. Some binding calls cover weakened binding; strength is not graded here. Where a sequence is shown, tags or fusion partners need not be part of it.

Protein sequences, listed by entry. Tags and fused reporters are not part of them.
UniProt D3ZHA0: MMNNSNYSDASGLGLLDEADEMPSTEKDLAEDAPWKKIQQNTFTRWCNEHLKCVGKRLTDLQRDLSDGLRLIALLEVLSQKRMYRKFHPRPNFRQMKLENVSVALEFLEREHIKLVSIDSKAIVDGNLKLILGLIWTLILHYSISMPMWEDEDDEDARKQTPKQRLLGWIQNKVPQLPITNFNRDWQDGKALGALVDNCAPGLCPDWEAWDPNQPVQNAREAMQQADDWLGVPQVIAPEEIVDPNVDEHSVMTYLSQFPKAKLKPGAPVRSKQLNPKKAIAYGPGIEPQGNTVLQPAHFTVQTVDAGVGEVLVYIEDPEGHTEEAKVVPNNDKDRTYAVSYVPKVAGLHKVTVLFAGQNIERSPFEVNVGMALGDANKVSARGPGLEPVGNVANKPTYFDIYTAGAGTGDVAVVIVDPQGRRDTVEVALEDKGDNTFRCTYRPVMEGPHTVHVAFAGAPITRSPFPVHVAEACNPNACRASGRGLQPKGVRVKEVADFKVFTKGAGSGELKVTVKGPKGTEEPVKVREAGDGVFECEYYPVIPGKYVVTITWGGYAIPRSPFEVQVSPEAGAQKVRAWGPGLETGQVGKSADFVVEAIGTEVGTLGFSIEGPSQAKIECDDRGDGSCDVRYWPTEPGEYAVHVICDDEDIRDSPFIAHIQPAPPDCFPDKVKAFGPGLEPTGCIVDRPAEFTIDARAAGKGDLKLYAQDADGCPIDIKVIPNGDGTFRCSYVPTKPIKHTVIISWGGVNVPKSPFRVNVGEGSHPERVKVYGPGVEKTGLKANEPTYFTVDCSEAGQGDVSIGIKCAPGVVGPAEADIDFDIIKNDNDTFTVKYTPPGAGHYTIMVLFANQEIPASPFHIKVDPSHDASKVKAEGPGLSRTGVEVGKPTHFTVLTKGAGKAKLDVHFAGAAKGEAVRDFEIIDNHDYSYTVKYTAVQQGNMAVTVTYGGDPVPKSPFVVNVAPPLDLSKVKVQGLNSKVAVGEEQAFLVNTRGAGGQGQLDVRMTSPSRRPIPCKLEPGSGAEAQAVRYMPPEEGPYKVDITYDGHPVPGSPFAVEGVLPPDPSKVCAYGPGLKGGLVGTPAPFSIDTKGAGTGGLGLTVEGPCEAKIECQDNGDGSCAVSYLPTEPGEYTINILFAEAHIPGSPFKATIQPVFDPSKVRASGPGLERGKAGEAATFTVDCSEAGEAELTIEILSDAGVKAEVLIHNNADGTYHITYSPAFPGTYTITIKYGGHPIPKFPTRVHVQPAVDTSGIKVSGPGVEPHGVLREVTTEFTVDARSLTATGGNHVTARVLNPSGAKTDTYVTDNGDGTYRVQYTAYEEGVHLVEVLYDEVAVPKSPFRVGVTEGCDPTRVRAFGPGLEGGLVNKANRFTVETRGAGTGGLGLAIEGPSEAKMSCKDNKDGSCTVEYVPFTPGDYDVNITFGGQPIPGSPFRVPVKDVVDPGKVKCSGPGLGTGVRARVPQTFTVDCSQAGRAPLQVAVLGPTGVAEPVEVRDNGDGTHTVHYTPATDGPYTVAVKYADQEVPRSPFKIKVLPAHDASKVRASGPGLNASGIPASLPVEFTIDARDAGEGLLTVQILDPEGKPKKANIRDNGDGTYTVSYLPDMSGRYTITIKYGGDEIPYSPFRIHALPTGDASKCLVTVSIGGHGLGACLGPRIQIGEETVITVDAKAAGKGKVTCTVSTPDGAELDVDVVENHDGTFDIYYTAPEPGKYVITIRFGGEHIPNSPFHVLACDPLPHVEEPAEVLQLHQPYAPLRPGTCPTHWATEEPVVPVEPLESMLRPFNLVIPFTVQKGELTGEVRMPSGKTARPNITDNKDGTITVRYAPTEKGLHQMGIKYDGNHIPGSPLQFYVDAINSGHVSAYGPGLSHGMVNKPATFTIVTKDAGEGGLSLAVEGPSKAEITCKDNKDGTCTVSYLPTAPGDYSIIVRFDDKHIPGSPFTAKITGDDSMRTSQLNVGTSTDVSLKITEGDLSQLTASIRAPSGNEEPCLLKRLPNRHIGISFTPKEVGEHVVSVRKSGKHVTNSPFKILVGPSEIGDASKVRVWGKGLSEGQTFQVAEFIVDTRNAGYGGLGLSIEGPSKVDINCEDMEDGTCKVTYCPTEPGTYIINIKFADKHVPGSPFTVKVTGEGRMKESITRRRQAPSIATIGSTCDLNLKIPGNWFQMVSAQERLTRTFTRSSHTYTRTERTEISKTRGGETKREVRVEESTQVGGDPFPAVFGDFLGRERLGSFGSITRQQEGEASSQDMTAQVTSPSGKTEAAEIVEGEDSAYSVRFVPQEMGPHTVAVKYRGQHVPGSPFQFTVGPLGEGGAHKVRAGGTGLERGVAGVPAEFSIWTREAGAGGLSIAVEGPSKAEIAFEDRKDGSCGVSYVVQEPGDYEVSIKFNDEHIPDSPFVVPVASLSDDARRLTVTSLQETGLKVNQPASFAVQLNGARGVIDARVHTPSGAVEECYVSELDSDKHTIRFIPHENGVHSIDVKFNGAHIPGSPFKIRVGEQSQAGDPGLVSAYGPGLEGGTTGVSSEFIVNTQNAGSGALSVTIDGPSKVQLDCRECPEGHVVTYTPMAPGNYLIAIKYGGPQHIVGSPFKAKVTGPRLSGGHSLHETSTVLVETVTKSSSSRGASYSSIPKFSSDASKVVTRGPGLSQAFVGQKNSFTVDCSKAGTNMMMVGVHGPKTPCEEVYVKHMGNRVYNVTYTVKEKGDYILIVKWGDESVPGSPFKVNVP

Legend:
[1] = target: T1, KCNE2 (potassium voltage-gated ion-channel subfamily E member 2), endogenous in differentiated H9C2 cardiomyocytes (rat (endogenous in H9C2)) (UniProt P63161); test: condition: only normoxic conditions (cells without hypoxic stress); co-IP; reciprocal co-IP of endogenous proteins from lysates of differentiated H9C2 cardiomyocytes under normoxic conditions; anti-KCNE2 or anti-FLNC, protein G agarose, Western blot
T1 sequence: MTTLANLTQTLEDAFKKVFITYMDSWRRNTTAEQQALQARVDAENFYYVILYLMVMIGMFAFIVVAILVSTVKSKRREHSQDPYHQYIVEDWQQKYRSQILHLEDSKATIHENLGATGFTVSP

[2] = target: T1, KCNE2 (potassium voltage-gated ion-channel subfamily E member 2), endogenous in differentiated H9C2 cardiomyocytes (rat (endogenous in H9C2)); test: co-IP; reciprocal co-IP of endogenous proteins from lysates of differentiated H9C2 cardiomyocytes after hypoxia (Esumi buffer pH 6.2, 1% O2, 37°C, 2 h); anti-KCNE2 or anti-FLNC, protein G agarose, Western blot

binding [1]: no binding
binding [2]: binds
Substance: Filamin C (FLNC), endogenous in differentiated H9C2 cardiomyocytes (from UniProt D3ZHA0 1-2726)
